Measurements reported in paper PMC4063695, “Design of Embedded-Hybrid Antimicrobial Peptides with Enhanced Cell Selectivity and Anti-Biofilm Activity” (PLoS ONE, 2014).
No end group written: not given here.

System: human red blood cells (hRBC)
Test: Hemolytic activity
Type: cell-based
Conditions: 512 µM used for MHC >[…]
Method: The amount of released hemoglobin by the lysis of erythrocytes was measured for hemolytic activity of peptides. Human erythrocytes were obtained from a healthy donor with written informed consent. The experimental protocol was reviewed and approved by the ethics committee of the Northeast Agricultural University Hospital. The measurement was based on a previously described method. The fresh hRBCs were washed three times by centrifugation (1000 g, 5 min, 4°C) in PBS (pH 7.4), and then resuspended in PBS to obtain the erythrocyte with a dilution of approximately 1% (v/v). Then, 50 µL of hRBCs solution was incubated with 50 µL of different concentrations of the peptides dissolved in PBS for 1 h at 37°C, before centrifugation (1000 g, 5 min, 4°C) again. The absorbance of the supernatants was measured at optical density (OD) 492 nm. […] The control samples for 0% and 100% hemolysis consisted of hRBCs in PBS (Ablank) only and in 0.1% Triton X-100 (Atriton), respectively. The percentage of hemolysis was calculated according to the following equation: [drawing 3]

Substance: RFRRLRKKTRKRLKKI-NH2 [RI16]
- Therapeutic index (ratio of MHC to GM): 4.2

Substance: RFRRLFRIRVRVLKKI-NH2 [R-FV-I16]
- Therapeutic index (ratio of MHC to GM): 64

Substance: RKKTRKR-NH2 [RR7]
- Therapeutic index (ratio of MHC to GM): 2

Substance: FRIRVRV-NH2 [FV7, reference compound]
- Therapeutic index (ratio of MHC to GM): 17.7
